This is an account of results in patent US20130253179A1, “Functionalization Processes and Reactants Used in Such Processes Using an Isatoic Anhydride or a Derivative Thereof, Biological Molecules Thus Treated and Kits” (priority 2010, published 2013).

Data set [1] concerns ORN with 27 bases in mixture with an ODN with 27 bases. Description: Selective functionalisation, capture, cleaving and elution of an ORN from an ORN/ODN mixture (HPLC 260 nm). How it is done:
We have a 27-mer ODN (Eurogentec ref. 21438-DNA batch #2177673, Sequence: 5′-AAC-CGC-AGT-GAC-ACC-CTC-ATC-ATT-ACA-3′) in 650 μM solution in water, and a 27-mer ORN (Eurogentec ref. 21437-RNA batch #2177672, Sequence: 5′-AAC-CGC-AGU-GAC-ACC-CUC-AUC-AUU-ACA-3′) in 952 μM solution in water. 15.4 μL of ODN and 17.5 μL of ORN are mixed and topped up with 67.1 μL of ultrapure water.
80 μL of the mixture (8 nmoles) are evaporated until dry and taken up in: 10 μL of water, 5 μL of isatoic anhydride Biot PEG4(SS)IA Me (24); […]), in 480 mM DMF solution, and 5 μL of Triethyl ammonium acetate buffer in 1 M solution in water. The medium is placed in the oven at 65° C. for one hour.
The medium is then subjected to a triple precipitation with lithium perchlorate LiClO4 and with acetone, in order to free it from the residual BiotPEG4 (SS) IA Me: 18 μL of LiClO4 in 3M solution in water and 262 μL of water are added to the medium. After vortex stirring, 900 μL of acetone are added, then the medium is agitated once again and centrifuged (5 minutes at 13,000 rpm at ambient temperature). The supernatant is then removed carefully and the same method is repeated twice more with 18 μL of LiClO4 and 282 μL of water. Finally, the medium is washed with 900 μL of acetone before stirring and centrifuging. The greater part of the supernatant is removed carefully before drying in the rotary evaporator.
The functionalisation and precipitation steps described above are repeated, starting from the dry residue taken up in 10 μL of water.
The ORN/ODN mixture is then taken up in 33 μL of water and 5 μL of the solution are then injected into HPLC (Injection 2, HPLC conditions No. 4, FIG. 15).
The following are successively introduced into a 250 μL tube: • 250 μg (i.e. 50 μL of solution) of Merck MagPrep-25 streptavidin-coated magnetic particles (Merck, Darmstadt, Germany), washed twice in advance with 200 μL of PBS buffer (0.01 M PO4^−, 0.0027 M KCl, 0.137 M NaCl, pH=7.4 at 25° C., Sigma-Aldrich ref., Saint Louis, USA). • 10 μL of PBS and 4.0 μL of precipitated ORN/ODN mixture which has reacted with the compound Biot PEG4 (SS) IA Me (24). • The medium is left under gentle stirring at ambient temperature for 10 minutes.
After magnetisation of the particles, the supernatant is removed carefully and a fraction is injected into HPLC (Injection 3, HPLC conditions No. 4, FIG. 15). The particles are then washed twice with 200 μL of PBS. 20 μL of dithiothreitol (DTT) in 100 mM solution in PBS are then added to the medium, which is left under gentle stirring at 40° C. for one hour.
After magnetisation, the supernatant is injected into HPLC (Injection 4, HPLC conditions No. 4, FIG. 15). […]

The subject of data set [2] is MAQC RNA/calf thymus gDNA. Nature of the data set: Selective extraction of RNA from an RNA/DNA mixture (Qubit assay). Details: species or system human. Conditions: compound 1.5 mM.
In data set [3] the test system is HIV RNA Transcript/calf thymus gDNA. The data set is described as above. The settings on record: compound 1.5 mM.
For data set [4], the system named is Easy MAG eluate from total blood. The description is as above. The settings on record: compound 1.5 mM.
Data set [5] concerns in vitro RNA transcripts (IVT). Nature of the data set: Functionalisation of in vitro RNA transcripts, Cy3 and RNA assay, DoL (Degree of Labelling). The class given is biochemical, human. How it is done:
The in vitro transcripts are generated in the same way as described in example 8. In this example, we have used four concentrations of functionalisation molecule Cy3 IA Me (13) in order to determine the most appropriate concentration for detection of the most sensitive functionalised IVTs.
6 μg of in vitro transcripts are taken up in a total volume of 20 μL of a 10 mM solution of Zn(OAc)2 pH 6.5. The solution is incubated for 15 min at 70° C. in order to partially fragment the RNA until a majority of fragments are obtained which are of a size between 25 and 200 bases. After this incubation, the solution is immediately put into ice.
11 μL of the transcript solution is mixed with 4 μL of a 500 mM solution of NaHCO3 pH 8-8.5, and with 5 μL of a 120, 240, 360 or 480 mM solution of Cy3 IA Me (13) in DMSO, to obtain 30, 60, 90 or 120 mM solutions of functionalisation reagent, respectively. These solutions are incubated at 65° C. for one hour.
The excess of functionalisation reagent as well as that of the different salts are eliminated by isopropanol precipitation then by acetone precipitation. To do this, 6 μL of 3M sodium acetate (i.e. 30% by volume) and 14 μL of isopropanol (i.e. 70% by volume) are added to the functionalisation solution. Vortex stirring is performed and centrifuging is performed for 30 mins at 14,000 rpm (20,800 g) at 4° C. The supernatant is eliminated and then the pellet is rinsed with 50 μL of 70% ethanol. Centrifuging is carried out again for 15 mins at 14,000 rpm (20,800 g) at 4° C., and the supernatant is eliminated.
280 μL of water, 18 μL of 3M LiClO4 and 900 μL of acetone are added to the pellet. Vortex stirring is performed, centrifuging is performed and the supernatant is eliminated. Next, 280 μL of water, 18 μL of 3M LiClO4 and 900 μL of acetone are added to the pellet. Vortex stirring is performed, centrifuging is performed and the supernatant is eliminated. The pellet is rinsed with 50 μL of 70% ethanol and then centrifuging is carried out for 15 mins at 14,000 rpm (20,800 g) at 4° C. The supernatant is eliminated, and the pellet is dried under vacuum with the rotary evaporator before the pellet is taken up in 20 μL of water (i.e. [in vitro transcripts]theoretical=[…]).
In order to determine the quantity of functionalised in vitro transcripts recovered after these different treatments, 1.2 μl of each end solution are assayed by UV spectrophotometry at 260 nm (Nanodrop 100, Thermo Scientific Waltham, USA). An assay is also carried out at 550 nm in order to learn the Cy3 functionalisation rate of the in vitro transcripts (% of Cy3 molecules per 100 nucleosides). This value is also known under the name DoL (Degree of Labelling) and is calculated with the following equation: DoL (in %)=100×(340×[Cy3])/(1000×[RNA]). The details of this equation are described in the protocol for the Cy3-ULS kit ref. EA-023 marketed by Kreatech (Amsterdam, The Netherlands). Table 4 below describes the DoL values following the functionalisation of IVT with different concentrations of molecule Cy3 IA Me (13).

[6] abbreviates: 120 mM compound in the solution.

In the case of `Cn1c(=O)oc(=O)c2cc(NC(=O)CCSSCCNC(=O)CCOCCOCCOCCOCCNC(=O)CCCCC3SCC4NC(=O)NC43)ccc21` (stereo not drawn) [5Biot PEG4 SS IA Me 24], the “nucleoside adducts and nucleotide anthranilate SH, level in the total mixture” value in data set [1] (after complete hydrolysis by Nuclease P1 and alkaline phosphatase) was found to be 5%. In addition, the specific capture yield in data set [1] (injection 3, streptavidin-coated magnetic particles) was found to be 37%. Further, in data set [1] (injection 4, DTT 100 mM, 40° C. 1 h), the “ORN freed from the support, yield relative to the quantity involved at the start” value came to 18%. In data set [1] (optimised conditions), the “yield from the functionalisation/capture/elution process” value was “around 50%”. Besides, the “Selectivity S” value in data set [2] worked out at 50; in data set [3] it was 26; in data set [4], 54. The entries for the “DNA/RNA ratio (final)” value in data set [2] (initial DNA/RNA 89/11), in data set [3] (initial DNA/RNA 80/20) and in data set [4] (initial DNA/RNA 88/12) were 14/86, 9/91 and 12/88, respectively.

Regarding `CCN1/C(=C\C=C\C2=[N+](CCCCCC(=O)Nc3ccc4c(c3)c(=O)oc(=O)n4C)c3ccc(S(=O)(=O)[O-])cc3C2(C)C)C(C)(C)c2cc(S(=O)(=O)[O-])ccc21.[K+]` [Cy3 IA Me 13, 1-methyl 5-Cy3-isatoic anhydride], the “Nanodrop IVT assay at 260 nm” value in data set [5] (30 mM compound in the solution) turned out to be 271 ng/µL; in data set [5] (60 mM compound in the solution), 255 ng/µL; in data set [5] (90 mM compound in the solution), 207 ng/µL; in data set [5] (setting [6]), 192 ng/µL. Moreover, the “Cy3 assay at 550 nm” value in data set [5] (30 mM compound in the solution, 65° C. 1 h, NaHCO3 pH 8-8.5) came to 6.7 pmol/µL; in data set [5] (60 mM compound in the solution) it was 13.1 pmol/µL; in data set [5] (90 mM compound in the solution), 12.3 pmol/µL; in data set [5] (setting [6]), 15.2 pmol/µL.
